Data as given in PubChem BioAssay AID1224830 (NIAID, 2016).

Test: 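Regulators of TLR4 signalling towards TNF-alpha in macrophage-like cells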 (primary screen)
Cell system: human THP-1 monocytic leukaemia cells, TNF dual-luciferase reporter clone, PMA-differentiated to macrophage-like cells
Reagent: siRNA pool against human genes, 50 nM
Duration: LPS for 4 h, given about 3 days after siRNA transfection
Challenge: bacterial LPS (TLR4 ligand), 10 ng/ml
Measurement: 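Ratio of firefly to renilla light, scaled to the plate median and expressed as a robust z-score per replicate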
Scale: TNF reporter robust z-score: higher = stronger TNF reporter response to LPS
Hit rule: 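a well is active when its z-score exceeds 2.8 or falls below -1.5; control wells carry no call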
Here is one part, drawn at random, of about 18,000 deposited reagents. About 2,900 of them (16%) count as active. 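Calls are made per well; low scores hint the gene aids the LPS response, high scores that it dampens it.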 A number with no mark means an inactive call. Repeated entries: four replicate wells of each siRNA pool. Reagent sequences are not shown.

Silencing of TLCD1 (TLC domain containing 1) came out at: TNF reporter robust z-score 0.91.
For TLCD1 (TLC domain containing 1), the values are TNF reporter robust z-score -0.37.
For TLCD1 (TLC domain containing 1) the deposit lists TNF reporter robust z-score 0.4.
Silencing of TLCD1 (TLC domain containing 1) gave: TNF reporter robust z-score 0.47.
OFD1 (OFD1 centriole and centriolar satellite protein) scored TNF reporter robust z-score -1.06.
For OFD1 (OFD1 centriole and centriolar satellite protein), the values are TNF reporter robust z-score -0.04.
After knock-down of OFD1 (OFD1 centriole and centriolar satellite protein), the screen gave TNF reporter robust z-score -0.14.
Depletion of OFD1 (OFD1 centriole and centriolar satellite protein) gave: TNF reporter robust z-score -0.2.

Entries listed so far whose target name begins with O or o (4):
OFD1 (OFD1 centriole and centriolar satellite protein): TNF reporter robust z-score = -1.06
OFD1 (OFD1 centriole and centriolar satellite protein): TNF reporter robust z-score = -0.04
OFD1 (OFD1 centriole and centriolar satellite protein): TNF reporter robust z-score = -0.14
OFD1 (OFD1 centriole and centriolar satellite protein): TNF reporter robust z-score = -0.2

The listing continues.
After knock-down of RNF25 (ring finger protein 25), the record shows TNF reporter robust z-score -0.14.
Against RNF25 (ring finger protein 25) the deposit lists TNF reporter robust z-score 0.83.
Knock-down of RNF25 (ring finger protein 25) gave: TNF reporter robust z-score -0.61.
With knock-down of RNF25 (ring finger protein 25), the record shows TNF reporter robust z-score 0.67.
For POLDIP2 (DNA polymerase delta interacting protein 2) the deposit lists TNF reporter robust z-score 1.16.
POLDIP2 (DNA polymerase delta interacting protein 2) gave TNF reporter robust z-score -0.39.
Depletion of POLDIP2 (DNA polymerase delta interacting protein 2) gave: TNF reporter robust z-score 0.41.
Depletion of POLDIP2 (DNA polymerase delta interacting protein 2) resulted in: TNF reporter robust z-score -0.56.
GPBAR1 (G protein-coupled bile acid receptor 1) showed TNF reporter robust z-score -1.7 (active).
GPBAR1 (G protein-coupled bile acid receptor 1) scored TNF reporter robust z-score -1.46.
GPBAR1 (G protein-coupled bile acid receptor 1) gave TNF reporter robust z-score -1.53 (active).
Knock-down of GPBAR1 (G protein-coupled bile acid receptor 1) came out at: TNF reporter robust z-score -1.42.
